From the supplement of paper PMC10849652 come the findings set out here.

Amino acid sequences for entries named in this document (tags omitted). A change or cut given only in a name is not applied to a line headed by its entry.
UniProt Q9H9Y6, whole entry, looked up: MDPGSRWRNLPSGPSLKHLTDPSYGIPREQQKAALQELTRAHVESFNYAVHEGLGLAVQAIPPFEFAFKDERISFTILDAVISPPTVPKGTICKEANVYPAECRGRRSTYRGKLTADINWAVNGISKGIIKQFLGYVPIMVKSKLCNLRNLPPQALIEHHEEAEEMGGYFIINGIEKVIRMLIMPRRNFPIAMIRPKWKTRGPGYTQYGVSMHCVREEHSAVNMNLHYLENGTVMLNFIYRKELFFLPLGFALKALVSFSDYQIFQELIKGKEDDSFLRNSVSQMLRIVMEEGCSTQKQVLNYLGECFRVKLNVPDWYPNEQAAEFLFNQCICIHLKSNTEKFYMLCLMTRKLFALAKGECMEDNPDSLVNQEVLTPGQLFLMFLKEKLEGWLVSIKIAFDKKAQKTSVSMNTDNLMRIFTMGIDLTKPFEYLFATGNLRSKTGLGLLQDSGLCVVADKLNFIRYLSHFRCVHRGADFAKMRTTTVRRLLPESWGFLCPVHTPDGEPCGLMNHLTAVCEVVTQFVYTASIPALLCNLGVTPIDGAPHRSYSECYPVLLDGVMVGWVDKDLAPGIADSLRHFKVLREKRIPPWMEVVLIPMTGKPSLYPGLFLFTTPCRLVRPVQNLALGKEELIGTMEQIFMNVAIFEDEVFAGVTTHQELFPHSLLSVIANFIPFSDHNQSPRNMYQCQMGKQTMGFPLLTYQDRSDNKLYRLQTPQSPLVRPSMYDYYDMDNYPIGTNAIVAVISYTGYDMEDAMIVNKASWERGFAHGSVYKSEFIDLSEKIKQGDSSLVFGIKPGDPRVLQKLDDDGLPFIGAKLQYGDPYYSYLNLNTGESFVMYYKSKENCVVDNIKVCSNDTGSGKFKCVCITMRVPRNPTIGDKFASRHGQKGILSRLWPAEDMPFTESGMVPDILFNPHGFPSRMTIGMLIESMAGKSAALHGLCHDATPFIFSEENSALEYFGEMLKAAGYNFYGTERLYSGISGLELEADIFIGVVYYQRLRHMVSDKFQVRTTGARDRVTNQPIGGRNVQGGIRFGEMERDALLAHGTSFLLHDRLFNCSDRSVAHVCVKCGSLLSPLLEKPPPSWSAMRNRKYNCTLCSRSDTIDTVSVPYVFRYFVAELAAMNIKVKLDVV
UniProt P11086: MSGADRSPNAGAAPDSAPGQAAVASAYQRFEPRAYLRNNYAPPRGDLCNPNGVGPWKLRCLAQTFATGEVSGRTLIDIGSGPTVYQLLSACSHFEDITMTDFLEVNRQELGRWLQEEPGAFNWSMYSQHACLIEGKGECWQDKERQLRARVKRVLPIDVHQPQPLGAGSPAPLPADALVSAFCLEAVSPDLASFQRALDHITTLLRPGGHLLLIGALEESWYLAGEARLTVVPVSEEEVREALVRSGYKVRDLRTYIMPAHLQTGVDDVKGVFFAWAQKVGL
UniProt Q9NUX5: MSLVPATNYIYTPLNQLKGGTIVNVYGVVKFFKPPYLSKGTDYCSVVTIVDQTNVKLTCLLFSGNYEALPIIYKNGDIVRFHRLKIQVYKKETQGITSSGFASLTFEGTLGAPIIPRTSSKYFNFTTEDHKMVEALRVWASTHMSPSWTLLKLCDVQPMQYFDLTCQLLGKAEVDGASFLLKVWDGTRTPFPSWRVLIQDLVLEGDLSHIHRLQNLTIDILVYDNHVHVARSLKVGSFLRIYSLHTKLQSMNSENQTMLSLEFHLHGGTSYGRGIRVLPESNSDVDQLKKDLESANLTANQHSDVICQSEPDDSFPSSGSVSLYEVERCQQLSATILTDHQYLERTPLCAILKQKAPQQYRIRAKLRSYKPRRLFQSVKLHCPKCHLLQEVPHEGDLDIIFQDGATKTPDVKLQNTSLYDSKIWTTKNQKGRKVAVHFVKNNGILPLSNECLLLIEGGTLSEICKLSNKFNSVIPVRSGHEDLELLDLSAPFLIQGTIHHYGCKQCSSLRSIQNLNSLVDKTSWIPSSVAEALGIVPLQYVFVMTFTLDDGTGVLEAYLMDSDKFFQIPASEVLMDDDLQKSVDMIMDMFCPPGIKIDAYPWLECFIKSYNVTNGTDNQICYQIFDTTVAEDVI
UniProt Q9Y6A1: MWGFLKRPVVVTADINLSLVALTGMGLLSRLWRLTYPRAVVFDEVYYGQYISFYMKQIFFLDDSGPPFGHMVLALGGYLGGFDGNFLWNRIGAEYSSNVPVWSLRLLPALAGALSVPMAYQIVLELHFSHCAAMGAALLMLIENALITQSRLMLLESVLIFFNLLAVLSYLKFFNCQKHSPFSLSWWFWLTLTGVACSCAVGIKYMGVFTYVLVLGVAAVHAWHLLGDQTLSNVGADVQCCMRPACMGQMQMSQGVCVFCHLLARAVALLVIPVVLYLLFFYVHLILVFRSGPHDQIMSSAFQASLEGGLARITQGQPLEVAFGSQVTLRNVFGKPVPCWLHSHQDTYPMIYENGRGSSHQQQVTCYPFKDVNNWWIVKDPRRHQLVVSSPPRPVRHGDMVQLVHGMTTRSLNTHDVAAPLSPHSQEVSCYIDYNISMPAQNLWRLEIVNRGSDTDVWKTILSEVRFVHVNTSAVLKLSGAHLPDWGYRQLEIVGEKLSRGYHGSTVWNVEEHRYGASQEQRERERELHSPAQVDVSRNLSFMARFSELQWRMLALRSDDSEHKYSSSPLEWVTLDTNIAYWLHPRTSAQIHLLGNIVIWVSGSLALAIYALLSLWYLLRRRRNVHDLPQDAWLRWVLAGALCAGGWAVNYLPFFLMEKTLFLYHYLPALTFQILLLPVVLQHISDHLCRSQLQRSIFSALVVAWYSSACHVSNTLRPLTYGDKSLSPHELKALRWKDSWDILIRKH
UniProt P00747, whole entry, looked up: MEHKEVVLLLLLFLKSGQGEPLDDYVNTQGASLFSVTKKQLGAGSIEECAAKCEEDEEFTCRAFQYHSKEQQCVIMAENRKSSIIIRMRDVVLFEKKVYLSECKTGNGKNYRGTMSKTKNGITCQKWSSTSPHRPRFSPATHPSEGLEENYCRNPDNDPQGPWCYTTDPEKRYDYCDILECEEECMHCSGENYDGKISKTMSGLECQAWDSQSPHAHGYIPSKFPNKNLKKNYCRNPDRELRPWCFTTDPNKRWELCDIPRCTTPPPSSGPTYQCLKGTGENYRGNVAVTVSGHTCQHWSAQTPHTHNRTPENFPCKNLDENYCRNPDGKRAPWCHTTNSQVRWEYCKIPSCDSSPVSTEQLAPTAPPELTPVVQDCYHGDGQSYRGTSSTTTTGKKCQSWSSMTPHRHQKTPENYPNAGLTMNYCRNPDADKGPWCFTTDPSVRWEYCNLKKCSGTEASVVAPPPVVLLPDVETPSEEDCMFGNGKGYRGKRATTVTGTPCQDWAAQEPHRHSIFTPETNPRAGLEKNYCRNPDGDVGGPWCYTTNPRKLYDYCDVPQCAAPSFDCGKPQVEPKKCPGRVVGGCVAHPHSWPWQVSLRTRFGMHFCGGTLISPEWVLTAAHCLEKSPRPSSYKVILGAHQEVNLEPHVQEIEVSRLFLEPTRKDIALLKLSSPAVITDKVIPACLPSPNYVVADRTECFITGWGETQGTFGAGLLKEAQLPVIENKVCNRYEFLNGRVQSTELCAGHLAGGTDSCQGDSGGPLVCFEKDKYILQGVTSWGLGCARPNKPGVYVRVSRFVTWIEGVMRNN
UniProt Q9NRY6: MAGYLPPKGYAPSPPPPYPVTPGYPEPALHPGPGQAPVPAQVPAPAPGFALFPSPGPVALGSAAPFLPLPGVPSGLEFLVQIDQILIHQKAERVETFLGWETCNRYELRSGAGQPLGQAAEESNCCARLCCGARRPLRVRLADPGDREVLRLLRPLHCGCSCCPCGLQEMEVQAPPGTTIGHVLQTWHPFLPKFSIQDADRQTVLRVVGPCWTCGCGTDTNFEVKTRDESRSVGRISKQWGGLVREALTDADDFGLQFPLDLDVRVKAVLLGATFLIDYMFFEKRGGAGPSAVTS
UniProt Q8IY26: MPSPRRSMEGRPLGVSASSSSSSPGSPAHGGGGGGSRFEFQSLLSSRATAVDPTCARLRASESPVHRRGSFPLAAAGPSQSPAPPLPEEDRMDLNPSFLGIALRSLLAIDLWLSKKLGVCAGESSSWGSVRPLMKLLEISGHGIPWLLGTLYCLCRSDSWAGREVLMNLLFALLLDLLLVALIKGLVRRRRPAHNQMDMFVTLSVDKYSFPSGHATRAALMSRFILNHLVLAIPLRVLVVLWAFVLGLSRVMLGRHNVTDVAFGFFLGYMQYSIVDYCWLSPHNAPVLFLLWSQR
UniProt Q8NAT1: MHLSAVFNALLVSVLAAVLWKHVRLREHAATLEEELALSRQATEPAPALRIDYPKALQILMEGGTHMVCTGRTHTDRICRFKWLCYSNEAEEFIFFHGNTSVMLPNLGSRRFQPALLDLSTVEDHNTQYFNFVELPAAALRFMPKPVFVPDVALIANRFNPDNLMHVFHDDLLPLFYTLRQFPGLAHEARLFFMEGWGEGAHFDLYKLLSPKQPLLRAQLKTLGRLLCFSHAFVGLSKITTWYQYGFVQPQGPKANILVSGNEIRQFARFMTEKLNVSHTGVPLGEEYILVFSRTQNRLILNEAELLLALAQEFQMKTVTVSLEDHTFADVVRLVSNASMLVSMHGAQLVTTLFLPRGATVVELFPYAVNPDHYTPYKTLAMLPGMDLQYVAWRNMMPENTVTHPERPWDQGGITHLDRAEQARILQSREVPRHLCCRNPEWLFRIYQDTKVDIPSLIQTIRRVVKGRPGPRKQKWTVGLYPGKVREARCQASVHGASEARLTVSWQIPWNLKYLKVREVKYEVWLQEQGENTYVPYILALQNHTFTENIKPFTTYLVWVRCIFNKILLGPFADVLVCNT
UniProt Q9Y535: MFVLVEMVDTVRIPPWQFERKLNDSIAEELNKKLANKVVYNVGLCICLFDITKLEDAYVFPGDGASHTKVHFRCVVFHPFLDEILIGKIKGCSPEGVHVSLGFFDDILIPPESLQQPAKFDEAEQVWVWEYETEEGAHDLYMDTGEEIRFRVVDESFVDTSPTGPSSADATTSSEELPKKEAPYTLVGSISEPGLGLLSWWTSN
UniProt O00592: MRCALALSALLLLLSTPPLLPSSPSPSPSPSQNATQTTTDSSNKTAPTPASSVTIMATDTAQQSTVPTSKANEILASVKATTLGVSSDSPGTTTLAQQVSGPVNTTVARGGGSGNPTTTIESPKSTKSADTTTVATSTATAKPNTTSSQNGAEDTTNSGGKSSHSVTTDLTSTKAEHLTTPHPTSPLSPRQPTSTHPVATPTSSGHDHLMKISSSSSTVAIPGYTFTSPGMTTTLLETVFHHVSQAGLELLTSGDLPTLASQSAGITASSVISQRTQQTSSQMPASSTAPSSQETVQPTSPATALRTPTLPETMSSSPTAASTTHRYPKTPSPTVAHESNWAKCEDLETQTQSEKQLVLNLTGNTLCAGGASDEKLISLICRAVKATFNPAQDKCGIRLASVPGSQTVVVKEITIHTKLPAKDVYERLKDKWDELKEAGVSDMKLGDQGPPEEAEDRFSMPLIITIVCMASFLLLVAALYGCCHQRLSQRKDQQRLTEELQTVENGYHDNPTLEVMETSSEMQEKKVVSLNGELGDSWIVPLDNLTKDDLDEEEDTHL
UniProt Q15126: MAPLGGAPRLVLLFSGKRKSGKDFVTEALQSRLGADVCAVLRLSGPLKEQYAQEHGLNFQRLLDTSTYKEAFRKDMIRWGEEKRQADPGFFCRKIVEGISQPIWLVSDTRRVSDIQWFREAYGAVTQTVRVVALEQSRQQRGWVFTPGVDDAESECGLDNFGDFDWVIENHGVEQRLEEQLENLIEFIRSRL
UniProt Q6T4P5: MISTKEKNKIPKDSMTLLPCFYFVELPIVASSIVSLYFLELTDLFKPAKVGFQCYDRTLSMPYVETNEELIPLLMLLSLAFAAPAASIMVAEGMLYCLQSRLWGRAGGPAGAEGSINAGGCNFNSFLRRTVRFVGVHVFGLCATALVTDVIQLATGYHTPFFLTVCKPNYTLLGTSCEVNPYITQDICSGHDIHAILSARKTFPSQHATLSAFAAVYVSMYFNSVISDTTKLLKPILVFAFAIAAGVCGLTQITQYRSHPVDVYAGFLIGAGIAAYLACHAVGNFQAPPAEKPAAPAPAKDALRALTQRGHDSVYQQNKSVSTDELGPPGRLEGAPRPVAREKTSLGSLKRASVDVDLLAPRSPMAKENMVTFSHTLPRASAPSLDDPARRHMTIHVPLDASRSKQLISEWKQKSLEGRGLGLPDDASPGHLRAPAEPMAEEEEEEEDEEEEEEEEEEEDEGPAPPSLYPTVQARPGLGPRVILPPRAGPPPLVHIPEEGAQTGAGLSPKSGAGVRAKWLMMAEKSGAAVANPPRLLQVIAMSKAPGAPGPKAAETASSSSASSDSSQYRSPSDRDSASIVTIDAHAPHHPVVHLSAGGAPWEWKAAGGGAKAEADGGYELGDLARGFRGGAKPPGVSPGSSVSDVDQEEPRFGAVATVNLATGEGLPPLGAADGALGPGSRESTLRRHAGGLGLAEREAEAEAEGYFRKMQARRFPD

This is one part of the list.

Compound in the first experiment: CCn1c(C(=O)N(C2CC2)C2CC2)cc2c3c(ncn3C)c(Nc3cc(C)n(C)n3)nc21
Nature of the experiment: log2 fold change, soluble protein after heating vs DMSO (PISA); higher = thermal stabilisation; K562 cells, 10 uM, 30 min; active = over 0.2 and 3.5 SD of the protein, either way, in both replicates (recomputed). The method, boiled down: (§1)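 For each measurement, 10 μM compound was applied for 30 min to K562 cells at 2×10^6 cells/mL. Aliquots were heated for 3 min across 48°C-58°C, pooled, and extracted in PBS with 0.5% NP-40 at 4°C; the supernatant after 21,000xg for 90 min was soluble protein. This was quantified by TMTpro 16plex LC-MS/MS with channel sums equalised, and thermal stability was reported relative to control samples from duplicates, on a log2 fold-change scale.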
As to POLR1B isoform 3 (UniProt Q9H9Y6), the log2 fold change is inactive: 0.027.

As to PNMT (UniProt P11086), the log2 fold change is inactive: 0.044.

As to POT1 (UniProt Q9NUX5), the log2 fold change is inactive: -0.091.

In the case of POMT1 (UniProt Q9Y6A1), the log2 fold change was inactive: -0.052.

In the case of PLG (UniProt P00747), the log2 fold change is inactive: 0.061.

As for PLSCR3 (UniProt Q9NRY6), the log2 fold change was inactive: 0.002.

For the target POLG, A0A3B3IS91, the log2 fold change was inactive: -0.083.

On to PLPP6 (UniProt Q8IY26), for which the log2 fold change was inactive: -0.183.

On to POM121C (UniProt A8CG34), for which the log2 fold change was inactive: -0.143.

Regarding POLR2F (UniProt P61218), the log2 fold change was inactive: -0.01.

As to POMGNT2 (UniProt Q8NAT1), the log2 fold change is inactive: -0.036.

As for PM20D2 (UniProt Q8IYS1), the log2 fold change was inactive: -0.153.

Regarding POLR3H (UniProt Q9Y535), the log2 fold change is inactive: -0.003.

As to PORCN (UniProt Q9H237), the log2 fold change was inactive: 0.098.

Compound in a further experiment: CCn1cc(-c2ccnc3[nH]c(-c4cccc(CN(C)C)c4)cc23)c(-c2ccc(NC(=O)N(C)C)cc2)n1
The description is as above. The method in brief:
as §1
As for PODXL (UniProt O00592), the log2 fold change is inactive: -0.238.

POLR1B isoform 3 (UniProt Q9H9Y6): the log2 fold change is inactive: 0.022.

Turning to POLR3D (UniProt P05423), the log2 fold change is inactive: 0.032.

As to PLXNA3 (UniProt P51805), the log2 fold change was inactive: -0.104.

With PLK1 (UniProt P53350), the log2 fold change was inactive: 0.033.

POLE (UniProt Q07864): the log2 fold change is inactive: 0.099.

Consider PLG (UniProt P00747), for which the log2 fold change is inactive: 0.051.

Consider POLQ (UniProt O75417), for which the log2 fold change was inactive: -0.269.

Take PLSCR3 (UniProt Q9NRY6): the log2 fold change was inactive: 0.035.

For PMVK (UniProt Q15126), the log2 fold change was inactive: 0.142.

For the target PLPPR3 isoform 3 (UniProt Q6T4P5), the log2 fold change is inactive: -0.276.

Consider PLPP6 (UniProt Q8IY26), for which the log2 fold change is inactive: -0.032.

As to POLR2F (UniProt P61218), the log2 fold change was inactive: -0.051.

Regarding POMGNT2 (UniProt Q8NAT1), the log2 fold change is inactive: 0.046.

Take POLR3H (UniProt Q9Y535): the log2 fold change is inactive: 0.016.

Consider POLE2 (UniProt P56282), for which the log2 fold change is inactive: 0.025.

Compound in a further experiment: CN(C)CC(=O)Nc1ccc2[nH]c(=O)c3ccccc3c2c1
The experiment is described as above. The method in brief:
as §1
Take POLRMT (UniProt O00411): the log2 fold change is inactive: 0.11.

On to POLR1B isoform 3 (UniProt Q9H9Y6), for which the log2 fold change is inactive: -0.064.

Regarding POLR3D (UniProt P05423), the log2 fold change is inactive: 0.018.

In the case of PLK1 (UniProt P53350), the log2 fold change was inactive: -0.016.

For POMT1 (UniProt Q9Y6A1), the log2 fold change is inactive: 0.028.

As for PLG (UniProt P00747), the log2 fold change was inactive: 0.117.

Turning to PMVK (UniProt Q15126), the log2 fold change was inactive: 0.018.

In the case of PLPP6 (UniProt Q8IY26), the log2 fold change is inactive: -0.116.

Turning to POLR1E isoform 1 (UniProt Q9GZS1), the log2 fold change was inactive: -0.043.

Turning to POLR2F (UniProt P61218), the log2 fold change was inactive: 0.043.

On to POMGNT2 (UniProt Q8NAT1), for which the log2 fold change was inactive: 0.115.

Regarding POLR3H (UniProt Q9Y535), the log2 fold change was inactive: 0.005.

For the target PORCN (UniProt Q9H237), the log2 fold change was inactive: -0.018.
